Laboratory results as given in patent US10011814B2, “Salt formulations for the fermentation of marine microorganisms” (Triphase Research and Development I Corp., priority 2006, dated 2018).

Tested on: Salinispora tropica NPS021184
Assay: Production of Salinosporamide A and analogs in shake flask or tube culture; titers by HPLC of EtOAc extract
Conditions: for Max Titers: Ex.1 Table 2; for Max Avg Titer: Ex.2 Table 3
Procedure: Seed cultures were prepared by inoculating frozen stock of Salinispora tropica NPS021184 into seed medium.
The first seed cultures (either 10 mL medium in a 50-mL tube or 100 mL medium in a 500-mL Erlenmeyer flask) were incubated for 3 to 4 days before inoculating into the second seed media with the same composition as the first seed cultures. The second seed cultures (100 mL medium in a 500-mL Erlenmeyer flask) were incubated for two days before inoculating into the production medium (100 mL medium in a 500-mL Erlenmeyer flask).
The chemically defined salt formulation included: […]
3.5 mL of the fermentation culture was mixed with equal volume of EtOAc in an extraction tube to extract the various metabolites from the production culture. The mixture was shaken on a shaker for one hr. An aliquot of the extract (1 mL) was removed and dried under a stream of nitrogen. The dried extract was stored at −20° C. freezer before HPLC analysis. The dried extract was resuspended in 320 μL DMSO and injected into HPLC using the 00TF14 method for analysis.
The production of Salinosporamide A, NPI-0047 and NPI-2065 was monitored by Agilent HP1100 HPLC using an ACE C-18 reversed-phase column (4.6×150 mm), and solvent system consisting of water (0.01% TFA) as solvent A and acetonitrile (0.01% TFA) as solvent B. The elution was started at 100% solvent A for 1 min, 100% solvent A to 35% solvent A gradient in 7 min, held at 35% solvent A for 11 min, 35% solvent A to 100% solvent B in 8 min and held at 100% solvent B for 9 min at a flow rate of 1.5 mL/min with the detector wavelength set at 210 nm and column temperature 35° C.
The first seed cultures (either 10 mL medium in a 50-mL tube or 100 ml medium in a 500-ml Erlenmeyer flask) were incubated for 3 to 4 days before inoculating into the second seed media with the same composition as the first seed cultures. The second seed cultures (100 mL medium in a 500-mL Erlenmeyer flask) were incubated for two days before inoculating into the production medium (100 mL medium in a 500-mL Erlenmeyer flask).
The first seed cultures (either 10 mL medium in a 50-ml tube or 100 mL medium in a 500-mL Erlenmeyer flask) were incubated for 3 to 4 days before inoculating into the second seed media with the same composition as the first seed cultures. The second seed cultures (100 mL medium in a 500-mL Erlenmeyer flask) were incubated for two days before inoculating into production medium (100 mL medium in a 500-mL Erlenmeyer flask).
3.5 mL of the fermentation culture was mixed with equal volume of EtOAc in an extraction tube to extract the various metabolites from the production culture. The mixture was shaken for 1 hr. An aliquot of the extract (1 mL) was removed and dried under a stream of nitrogen. The dried extract was stored at −20° C. freezer before HPLC analysis. The dried extract was resuspended in […] DMSO and injected into HPLC using the TFS7 method for analysis.
The production of Salinosporamide A, NPI-0047 and NPI-2065 was monitored by Agilent HP1100 HPLC using an ACE C-18 reversed-phase column (4.6×150 mm), and isocratic solvent system consisting of 67% water (0.01% TFA) and 33% acetonitrile (0.01% TFA). The flow rate was 1.5 mL/min for 15 min with the detector wavelength set at 210 nm and column temperature 35° C.
3.5 mL of the fermentation culture was mixed with equal volume of EtOAc in an extraction tube to extract the various metabolites from the production culture. The mixture was shaken on the shaker for 1 hr. An aliquot of the extract (1 mL) was removed and dried under a stream of nitrogen. The dried extract was stored at −20° C. freezer before HPLC analysis. The dried extract was resuspended in 320 μL DMSO and injected into HPLC using the TFS7 method for analysis. […]

`C[C@@]12OC(=O)[C@]1([C@@H](O)[C@@H]1C=CCCC1)NC(=O)[C@@H]2CCCl` [Salinosporamide A] was tested, and the “Titers (maximum concentrations)” value (BAS.PD + 0.1% Valeric acid) was 131 mg/L, the “Maximum Titer” value (Ex.1 Table 1, shake flask, 104 μg/L CoCl2·6H2O in production medium) was 251.7 mg/L and the “Maximum Titer” value (Ex.1 Table 1, shake flask, 1.04 mg/L CoCl2·6H2O in production medium) was 253.4 mg/L. For the same compound, the “Maximum Titer” value (Ex.1 Table 1, shake flask, 10.4 mg/L CoCl2·6H2O in production medium) was 244.6 mg/L, the “Maximum Titer” value (Ex.1 Table 1, shake flask, no CoCl2·6H2O addition to production medium) was 248.0 mg/L and the “Max Titers” value (2.6 μg/L CoCl2·6H2O in production medium) was 275.3 mg/L. The “Max Titers” value (5.2 μg/L CoCl2·6H2O in production medium) was 247.9 mg/L, the “Max Titers” value (6.5 μg/L CoCl2·6H2O in production medium) was 275.7 mg/L and the “Max Titers” value (13 μg/L CoCl2·6H2O in production medium) was 271.3 mg/L. For the same compound, the “Max Titers” value (26 μg/L CoCl2·6H2O in production medium) was 261.4 mg/L, the “Max Titers” value (52 μg/L CoCl2·6H2O in production medium) was 259.9 mg/L and the “Max Titers” value (104 μg/L CoCl2·6H2O in production medium) was 264.2 mg/L. The “Max Titers” value (208 μg/L CoCl2·6H2O in production medium) was 272.8 mg/L, the “Max Titers” value (416 μg/L CoCl2·6H2O in production medium) was 249.1 mg/L and the “Max Titers” value (shake flask, control, no CoCl2·6H2O in production medium) was 272.3 mg/L. For the same compound, the “Max Avg Titer” value (CoCl2·6H2O in seed medium 0 μg/L, 52 μg/L in production medium) was 291.8 mg/L, the “Max Avg Titer” value (CoCl2·6H2O in seed medium 2.6 μg/L, 52 μg/L in production medium) was 296.8 mg/L and the “Max Avg Titer” value (CoCl2·6H2O in seed medium 5.2 μg/L, 52 μg/L in production medium) was 306.0 mg/L. The “Max Avg Titer” value (CoCl2·6H2O in seed medium 13 μg/L, 52 μg/L in production medium) was 299.4 mg/L, the “Max Avg Titer” value (CoCl2·6H2O in seed medium 26 μg/L, 52 μg/L in production medium) was 366.2 mg/L and the “Max Avg Titer” value (CoCl2·6H2O in seed medium 52 μg/L, 52 μg/L in production medium) was 326.6 mg/L. For the same compound, the “Max Avg Titer” value (CoCl2·6H2O in seed medium 104 μg/L, 52 μg/L in production medium) was 347.0 mg/L, the “Max Avg Titer” value (CoCl2·6H2O in seed medium 208 μg/L, 52 μg/L in production medium) was 368.5 mg/L and the “Max Avg Titer” value (CoCl2·6H2O in seed medium 416 μg/L, 52 μg/L in production medium) was 321.2 mg/L. For the same compound, the Maximum Titer (Ex.20, NPS21184, detected at 24 g/L NaCl) was 295 mg/L, the Titer (Ex.20, NPS21184, production medium supplemented with 5 g/L NaCl) was 5.4 mg/L and the Titer (Ex.34, NPS21184, Production Medium D with Amberlite XAD-7 resin, shake flask) was 350 to 400 mg/L. For the same compound, the Titer (Ex.4 Table 9, Chemically Defined Salt Formulation + Na2SO4 + 52 μg/L CoCl2·6H2O (Medium Lo.Maz, low chloride)) was 217 mg/L, the Titer (Ex.4 Table 9, Chemically Defined Salt Formulation + NaCl + 52 μg/L CoCl2·6H2O, average of two experiments) was 279* mg/L and the Titer (Ex.4 Table 9, production medium with INSTANT OCEAN) was 228 mg/L. It also gave a Titer (Ex.4 Table 9, production medium: Chemically Defined Salt Formulation + NaCl) of 248 mg/L, a Titer (Ex.5 Table 12, seed Lo.BNA, production SHY.KcMC, 16 mM sodium by ICP-MS, culture age 3 days) of 109 mg/L and a Titer (Ex.5 Table 12, seed Lo.BNA, production SHY.KcMC, 16 mM sodium by ICP-MS, culture age 4 days) of 187 mg/L. The Titer (Ex.5 Table 12, seed Lo.BNA, production SHY.KcMC, 16 mM sodium by ICP-MS, culture age 5 days) was 226 mg/L, the Titer (Ex.5 Table 12, seed Lo.BNA, production SHY.KcMC, 16 mM sodium by ICP-MS, culture age 6 days) was 239 mg/L and the Titers (Ex.6 Table 13, washed cells, seed A1.Kc4C, production SHY.KcMC, 11 mM sodium by ICP-MS, culture age 3 days) was 45 mg/L. It also gave a Titers (Ex.6 Table 13, washed cells, seed A1.Kc4C, production SHY.KcMC, 11 mM sodium by ICP-MS, culture age 4 days) of 100 mg/L, a Titers (Ex.6 Table 13, washed cells, seed A1.Kc4C, production SHY.KcMC, 11 mM sodium by ICP-MS, culture age 5 days) of 170 mg/L and a Titers (Ex.6 Table 13, washed cells, seed A1.Kc4C, production SHY.KcMC, 11 mM sodium by ICP-MS, culture age 6 days) of 176 mg/L. It also gave a Titers (Ex.8 Table 16, seed SHY.KCD, production SHY.KcMC, 11 mM sodium by ICP-MS, culture age 3 days) of 88 mg/L, a Titers (Ex.8 Table 16, seed SHY.KCD, production SHY.KcMC, 11 mM sodium by ICP-MS, culture age 4 days) of 188 mg/L and a Titers (Ex.8 Table 16, seed SHY.KCD, production SHY.KcMC, 11 mM sodium by ICP-MS, culture age 5 days) of 211 mg/L. It also gave a Titers (Ex.8 Table 16, seed SHY.KCD, production SHY.KcMC, 11 mM sodium by ICP-MS, culture age 6 days) of 243 mg/L, a Titers (INSTANT OCEAN-based media, day 4, condition 1 (Control): seed no cobalt addition, production no cobalt addition) of 275 mg/L and a Titers (INSTANT OCEAN-based media, day 4, condition 2: seed no cobalt addition, production +13 μg/L CoCl2•6H2O) of 275 mg/L. For the same compound, the Titers (INSTANT OCEAN-based media, day 4, condition 3: seed no cobalt addition, production +52 μg/L CoCl2•6H2O) was 244 mg/L, the Titers (INSTANT OCEAN-based media, day 4, condition 4: seed no cobalt addition, production +208 μg/L CoCl2•6H2O) was 244 mg/L and the Titers (INSTANT OCEAN-based media, day 4, condition 5: seed +52 μg/L CoCl2•6H2O, production no cobalt addition) was 281 mg/L. For the same compound, the Titers (INSTANT OCEAN-based media, day 4, condition 6: seed +52 μg/L, production +13 μg/L CoCl2•6H2O) was 261 mg/L, the Titers (INSTANT OCEAN-based media, day 4, condition 7: seed +52 μg/L, production +52 μg/L CoCl2•6H2O) was 252 mg/L and the Titers (INSTANT OCEAN-based media, day 4, condition 8: seed +5 μg/L, production +208 μg/L CoCl2•6H2O) was 256 mg/L. The Titers (INSTANT OCEAN-based media, day 4, condition 9: seed +208 μg/L CoCl2•6H2O, production no cobalt addition) was 257 mg/L, the Titers (INSTANT OCEAN-based media, day 4, condition 10: seed +208 μg/L, production +13 μg/L CoCl2•6H2O) was 256 mg/L and the Titers (INSTANT OCEAN-based media, day 4, condition 11: seed +208 μg/L, production +52 μg/L CoCl2•6H2O) was 265 mg/L. The Titers (INSTANT OCEAN-based media, day 4, condition 12: seed +208 μg/L, production +208 μg/L CoCl2•6H2O) was 246 mg/L, the “Maximum Titer” value (Instant Ocean based media, 0x Vitamin B12: seed 0, production 0) was 252 mg/L and the “Maximum Titer” value (Instant Ocean based media, 1x Vitamin B12: seed and production 0.296 mg/L (0.22 μM)) was 266 mg/L. The “Maximum Titer” value (Instant Ocean based media, 1x vitamin B12P: seed 0, production 0.296 mg/L (0.22 μM) Vitamin B12) was 231 mg/L, the “Maximum Titer” value (Instant Ocean based media, 4x Vitamin B12: seed and production 1.185 mg/L (0.88 μM)) was 266 mg/L and the “Maximum Titer” value (Instant Ocean based media, 10x Vitamin B12: seed and production 2.96 mg/L (2.2 μM)) was 247 mg/L. The “Titers (maximum concentrations)” value (LoCl.PD + 0.1% Valeric acid) was 45 mg/L, the Titer (NPS21184, CoCl2•6H2O 0 in seed medium, 0 in production medium) was 258 mg/L and the Titer (NPS21184, CoCl2•6H2O 208 μg/L in seed medium, 52 μg/L in production medium) was 292 mg/L. The Titer (NPS21184, production medium with salt formulation, NaCl 0 g/L) was 0 mg/L, the Titer (NPS21184, production medium with salt formulation, NaCl 5 g/L) was 5.4 mg/L and the Titer (NPS21184, production medium with salt formulation, NaCl 10 g/L) was 235 mg/L. For the same compound, the Titer (NPS21184, production medium with salt formulation, NaCl 15 g/L) was 288 mg/L, the Titer (NPS21184, production medium with salt formulation, NaCl 20 g/L) was 286 mg/L and the Titer (NPS21184, production medium with salt formulation, NaCl 24 g/L) was 295 mg/L. The Titer (NPS21184, production medium with salt formulation, NaCl 30 g/L) was 223 mg/L, the “Maximum Titer” value (defined salt formulation based media, 1× CoCl2•6H2O: seed and production 52 μ/L (0.22 μM) CoCl2•6H2O) was 297 mg/L and the “Maximum Titer” value (defined salt formulation based media, 1× vitamin B12: seed and production 0.296 mg/L (0.22 μM) Vitamin B12) was 304 mg/L. The “Maximum Titer” value (defined salt formulation based media, Control: no vitamin B12 or cobalt supplement) was 277 mg/L, the “Titers (maximum concentrations)” value (low chloride production medium LoCl.PD, no valeric acid) was 96 mg/L and the “Titers (maximum concentrations)” value (saline production medium BAS.PD, no valeric acid) was 274 mg/L. It also gave a Maximum Titer (time of XAD-7 resin addition 24 h) of 275 mg/L, a Maximum Titer (time of XAD-7 resin addition 48 h) of 224 mg/L and a Maximum Titer (time of XAD-7 resin addition 72 h) of 108 mg/L.

Marks after values point to notes of the source that are not given here.
